{"source": "paper PMC6389942", "key": {"[1]": {"biological_target": "FLAG-PCNT ΔPACT (C-terminal fragment lacking the region of a.a. 3139–3216) (human)", "assay": "co-IP; HEK293T cells co-expressing both proteins; lysis buffer 20 mM Tris/HCl pH 7.5, 50 mM NaCl, 1% TritonX-100, 5 mM EGTA, 1 mM DTT, 2 mM MgCl2; IP with FLAG antibody-conjugated M2 agarose, 2 h at 4 °C; western blotting"}, "[2]": {"biological_target": "AKAP9 C-terminus (a.a. 3643–3907) containing the PACT domain (human)", "assay": "co-IP; HEK293T cells co-expressing both proteins; lysis buffer 20 mM Tris/HCl pH 7.5, 50 mM NaCl, 1% TritonX-100, 5 mM EGTA, 1 mM DTT, 2 mM MgCl2; IP with FLAG antibody-conjugated M2 agarose, 2 h at 4 °C; western blotting"}}, "note": "No constants are given. Whether binding was seen depends on the method and setting. Binding seen in cells or lysates may run through a third protein. For some assays here: Binding calls can cover weak binding; strength is not graded here. Tags and fused reporters may be left off the sequences shown."}
{"binder": "HA-Cep57 (centrosomal protein of 57 kDa, full length) (protein, UniProt Q86XR8-1 1-500) MAAASVSAASGSHLSNSFAEPSRSNGSMVRHSSSPYVVYPSDKPFLNSDLRRSPSKPTLAYPESNSRAIFSALKNLQDKIRRLELERIQAEESVKTLSRETIEYKKVLDEQIQERENSKNEESKHNQELTSQLLAAENKCNLLEKQLEYMRNMIKHAEMERTSVLEKQVSLERERQHDQTHVQSQLEKLDLLEQEYNKLTTMQALAEKKMQELEAKLHEEEQERKRMQAKAAELQTGLETNRLIFEDKATPCVPNARRIKKKKSKPPEKKSSRNYFGAQPHYRLCLGDMPFVAGKSTSPSHAVVANVQLVLHLMKQHSKALCNDRVINSIPLAKQVSSRGGKSKKLSVTPPSSNGINEELSEVLQTLQDEFGQMSFDHQQLAKLIQESPTVELKDKLECELEALVGRMEAKANQITKVRKYQAQLEKQKLEKQKKELKATKKTLDEERNSSSRSGITGTTNKKDFMKLRPGEKRRKNLQLLKDMQSIQNSLQSSSLCWDY", "values": [{"measurement": "binding", "setting": "[1]", "result": "no binding"}, {"measurement": "binding", "setting": "[2]", "result": "binds"}]}
